The campaign covered roughly 220,000 compounds. About 770 (0.35%) were called active. The shares of active, inactive and inconclusive entries below differ from those in the screen. Rule as the data show it: active = binding response below about 49% or above about 150%; inconclusive = no clear call, values can overlap the other calls; inactive = in between.
biological target: Guanine nucleotide-binding protein G(o) subunit alpha (Homo sapiens) (UniProt P09471); experiment: RGS7-Galphao binding modulators, primary screen, biochemical, multiplexed bead flow cytometry (AID 1439); settings: at 10 µM, actives lie on both sides;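 also: fluorescent Galphao held in activated GDP-AlF4 state binding bead-coupled RGS7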

The chains behind the UniProt entries cited, without tags or fusion partners.
UniProt P09471, whole entry, looked up: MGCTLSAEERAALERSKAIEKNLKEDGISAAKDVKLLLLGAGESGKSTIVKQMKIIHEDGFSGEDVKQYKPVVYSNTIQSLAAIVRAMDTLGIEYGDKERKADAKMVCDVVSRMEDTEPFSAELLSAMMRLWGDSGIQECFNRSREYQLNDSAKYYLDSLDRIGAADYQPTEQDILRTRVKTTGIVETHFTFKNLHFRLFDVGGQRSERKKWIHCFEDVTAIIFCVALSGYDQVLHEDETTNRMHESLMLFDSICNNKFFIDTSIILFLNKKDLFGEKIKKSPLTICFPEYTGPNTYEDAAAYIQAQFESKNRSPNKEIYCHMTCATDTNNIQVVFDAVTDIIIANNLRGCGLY

Structure (SMILES) | binding response (% of control)
CCN(CC)S(=O)(=O)c1ccc(NN=C2CCN(C)CC2)c([N+](=O)[O-])c1 | inconclusive: 92.4%
O=C(O)C(O)C(O)c1nc2ccccc2[nH]1 (configuration not stated) | inconclusive: 89.7%
O=C1NC(=Nc2ccc3ccccc3c2)S/C1=C/c1ccco1 | inconclusive: 103%
N/C(=N\c1nc2ccccc2o1)NC(=O)c1ccccc1Br | inconclusive: 4.43%
CC(=O)c1sc(-c2ccccc2)cc1NS(=O)(=O)c1ccc(C)cc1 | inconclusive: 99.5%
Cc1cc(C)nc(-n2nc(C)cc2NC(=O)CN2CCCC2)n1 | inconclusive: 89.7%
CCOC(=O)Cc1csc(NC(=O)c2cc3c(s2)CCCC3)n1 | inactive: 112%
CC(C)(C)OC(=O)NC(Cc1ccccc1)C(=O)NCCCC(=O)O (configuration not stated) | inconclusive: 92.5%
Cc1cc(Cl)ccc1OCc1nnc2n1CCCCC2 | inconclusive: 103%
CCOc1ccccc1CNCCNC(=O)c1nonc1N | inconclusive: 124%
O=C(COc1ncnc2cc(Cl)ccc12)c1ccc2c(c1)OCCO2 | inconclusive: 88.2%
O=C(NC1CCCCC1)C(=S)NC1CCCCC1 | inconclusive: 107%
N/C(=N\O)c1cccc(CS(=O)(=O)c2ccccn2)c1 | inconclusive: 332%
O=C1CCCC(O)=C1C=NCc1ccccc1 | inactive: 96.3%
O=C(Nc1nc(-c2ccccc2)cs1)c1cccc([N+](=O)[O-])c1 | active: 12.8%
COc1ccc(-c2n[nH]c(=S)n2/N=C/c2cccn2C)cc1 | inconclusive: 70.8%
CC(C)(C)NC(=O)C1CCC(CNc2c(N3CCCCC3)c(=O)c2=O)CC1 (configuration not stated) | inconclusive: 40.3%
Cc1cccn2c(CNCCSc3nccn3C)c(C(=O)N3CCCCC3)nc12 | inconclusive: 125%
CC(C)(C)C(=O)Nc1ccccc1C(=O)NCCCn1ccnc1 | inconclusive: 104%
Cc1cnc(NC(=O)c2nn(C)cc2[N+](=O)[O-])s1 | inconclusive: 83.1%
COc1ccc([N+](=O)[O-])cc1N(CC(=O)NCCCOC(C)C)S(C)(=O)=O | inactive: 97.3%
COc1ccc2[nH]c3c(=O)n(Cc4ccc(C(=O)N5CCCC5)cc4)c(=S)[nH]c3c2c1 | inactive: 102%
COC(=O)C1=C(C)N=c2s/c(=C3\C(=O)Nc4ccccc43)c(=O)n2C1c1ccccc1 (configuration not stated) | inactive: 114%
Fc1ccc(/C=C\c2nccc3c2[nH]c2ccccc23)cc1 | inconclusive: 123%

Part of the list above, reformatted:
Structure (SMILES),binding response (% of control)
CCN(CC)S(=O)(=O)c1ccc(NN=C2CCN(C)CC2)c([N+](=O)[O-])c1,inconclusive: 92.4%
CC(=O)c1sc(-c2ccccc2)cc1NS(=O)(=O)c1ccc(C)cc1,inconclusive: 99.5%
Cc1cc(Cl)ccc1OCc1nnc2n1CCCCC2,inconclusive: 103%
CCOc1ccccc1CNCCNC(=O)c1nonc1N,inconclusive: 124%
N/C(=N\O)c1cccc(CS(=O)(=O)c2ccccn2)c1,inconclusive: 332%
O=C1CCCC(O)=C1C=NCc1ccccc1,inactive: 96.3%
O=C(Nc1nc(-c2ccccc2)cs1)c1cccc([N+](=O)[O-])c1,active: 12.8%
COc1ccc(-c2n[nH]c(=S)n2/N=C/c2cccn2C)cc1,inconclusive: 70.8%
Cc1cnc(NC(=O)c2nn(C)cc2[N+](=O)[O-])s1,inconclusive: 83.1%
COC(=O)C1=C(C)N=c2s/c(=C3\C(=O)Nc4ccccc43)c(=O)n2C1c1ccccc1 (configuration not stated),inactive: 114%
Fc1ccc(/C=C\c2nccc3c2[nH]c2ccccc23)cc1,inconclusive: 123%

Next part:

Structure (SMILES) | binding response (% of control)
O=Cc1ccc(O)c2ncccc12 | inconclusive: 102%
COc1ccc([N+](=O)[O-])cc1N(CC(=O)O)S(C)(=O)=O | inconclusive: 99.4%
CSc1ccccc1C(=O)N1CCN(c2cccc(Cl)c2)CC1 | inconclusive: 138%
COc1ccc2c(c1)CCCN2C(N)=Nc1ccc(Cl)cc1 | inconclusive: 111%
O=C(NNS(=O)(=O)c1ccc(C(F)(F)F)cc1)c1cnn(-c2ccccc2)c1C(F)(F)F | inconclusive: 18.4%
O=C(Nc1cccnc1)c1ccc(S(=O)(=O)c2ccccc2)cc1 | inconclusive: 97%
O=C(CSc1nc2ccc(Cl)cc2[nH]1)c1cccs1 | inconclusive: 79.9%
NC(=O)CC[C@H](NC(=O)c1ccc(F)cc1)C(=O)OCC(=O)NCc1ccc(F)cc1 | inconclusive: 91.9%
COc1ccc(Cl)cc1NC(=S)N1CCN(S(C)(=O)=O)CC1 | inconclusive: 99.8%
CCCCn1nnc(NC(=S)NC(=O)c2ccc(-c3cccc(Cl)c3Cl)o2)n1 | inactive: 98.5%
Cn1cc(CN2CCCC(C(=O)c3nccn3C)C2)c(-c2cccc(Cl)c2)n1 (configuration not stated) | inactive: 111%
NC(N)=NC(N)=Nc1cccc2ccccc12 | inconclusive: 92.7%
N#C/C(=C(/O)c1ccco1)c1nc2ccccc2s1 | inconclusive: 91.9%
COc1ccc(CCNC(=S)NCc2ccc(Cl)c(Cl)c2)cc1OC | inconclusive: 101%
CCOC(=O)C1(c2nc(N)cs2)COC(=O)C1 (configuration not stated) | inactive: 105%
CC(C)n1nnnc1-c1ccc(Cl)cc1 | inconclusive: 81.5%
N/C(=N\OC(=O)c1ccc2ccccc2c1)c1ccccn1 | inconclusive: 86.3%
Cn1c([N+](=O)[O-])cnc1N1CCN(c2nncs2)C1=O | inconclusive: 82.8%
CN(C)c1ccc(/C=N/NC(=O)c2ccccn2)cc1 | inconclusive: 114%
COc1ccc(-c2noc(CCCC(=O)Nc3cccnc3)n2)cc1OC | inconclusive: 143%
Cc1ccccc1NC(=O)Cn1nnc2ccccc21 | inconclusive: 124%
O=C(NCCCN1CCOCC1)C1Cc2c(ccc3ccccc23)O1 (configuration not stated) | inactive: 102%
C/C(=N\NC(=O)c1cccc(N2CCCC2=O)c1)c1ccc(N)cc1 | inactive: 102%

Reference: PubChem BioAssay AID1439 (NMMLSC, 2008)
